Publication PMC10165932, “Tripeptides conjugated with thiosemicarbazones: new inhibitors of tyrosinase for cosmeceutical use” (Journal of Enzyme Inhibition and Medicinal Chemistry, 2023)
Structures were worked out from names or drawings and are uncertain.

The chains behind the UniProt entries cited, without tags or fusion partners. Residues count along the entry.
UniProt C7FF04, 1-392 limits assumed: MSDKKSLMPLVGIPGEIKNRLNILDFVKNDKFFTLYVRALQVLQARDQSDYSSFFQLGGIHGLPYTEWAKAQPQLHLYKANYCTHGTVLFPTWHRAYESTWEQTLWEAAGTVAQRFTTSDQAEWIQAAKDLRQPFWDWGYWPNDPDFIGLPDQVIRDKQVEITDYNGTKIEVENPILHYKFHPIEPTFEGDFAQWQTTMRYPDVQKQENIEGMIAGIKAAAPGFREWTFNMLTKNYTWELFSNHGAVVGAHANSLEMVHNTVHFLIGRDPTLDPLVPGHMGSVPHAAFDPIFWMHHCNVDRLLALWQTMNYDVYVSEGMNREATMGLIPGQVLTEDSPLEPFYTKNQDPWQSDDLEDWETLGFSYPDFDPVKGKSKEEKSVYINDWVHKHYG

Assays:
[1] = test system: B16F0 murine melanoma cell line; experiment: Cell proliferation assay (MTT); type: cell-based; settings: read-out: IC50 of cell proliferation, 48 h, n = 3
Experimental: B16F0 murine melanoma cell line was cultured in DMEM (Biowest, Nuaillé, France) medium supplemented with 100 U/ml streptomycin (Sigma-Aldrich, Taufkirchen, Germany), 100 U/ml penicillin (Sigma-Aldrich, Taufkirchen, Germany), and 10% foetal bovine serum (Sigma-Aldrich, Taufkirchen, Germany). Cells were maintained in 5% CO2 at 37 °C. Cells viability was estimated by MTT colorimetric assay as described by Bellei et al.[51] B16 cells were seeded into 96-well plate (4 × 10^3 cells/well) and incubated in the presence of the investigated compounds at various concentrations (1000, 400, 100, 40, 10, 1, 0.1 μM) for 48 h. Kojic acid and DMSO were used as controls. MTT was added into wells (0.625 mg/ml, Sigma-Aldrich, Taufkirchen, Germany) for the last 4 h. Then lysing buffer was added to dissolve insoluble formazan. The absorbance was measured (λ = 570 nm) using Thermo Lab Multiscan RC microplate reader.

[2] = test system: B16F0 murine melanoma cell line; experiment: Measurement of melanin production in α-MSH-stimulated B16F0 cells; type: cell-based; settings: for % Of melanogenesis inhibition at a specific inhibitor concentration: B16F0, 48 h; for IC50: read-out: IC50 of melanin production, B16F0, n = 3
mushroom tyrosinase = mushroom tyrosinase (Agaricus bisporus, UniProt C7FF04); experiment: Tyrosinase inhibition assay (diphenolase activity, L-DOPA substrate); type: biochemical; settings: L-DOPA 5 mM, n = 3

IC50 [1] [µM] | IC50 [2] [µM] | IC50 (mushroom tyrosinase) [µM] | SMILES | % Of melanogenesis inhibition at a specific inhibitor concentration ([2]; 10 µM) [%] | % Of melanogenesis inhibition at a specific inhibitor concentration ([2]; 40 µM) [%]
114 | 102 | 5.3 | NC(=S)N/N=C/c1ccc(C(=O)O)cc1 | 14 | 30
113 | 126 | 5.8 | C/C(=N\NC(N)=S)c1ccc(C(=O)O)cc1 | 1 | 13
